Data as given in PubChem BioAssay AID1053208 (Peter MacCallum Cancer Centre, 2014).

Purpose: 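Find knock-downs that sensitise mouse osteosarcoma cells to doxorubicin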 (primary screen)
System: mouse osteosarcoma cells, early-passage culture from an engineered mouse model of fibroblastic bone tumour
Reagents: siRNA pool against mouse genes, 40 nM
Timing: about 120 h (48 h before drug, then 72 h with drug)
Conditions: doxorubicin 100 nM for 72 h, roughly 30-40% inhibitory dose
Detection: 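Viability read as ATP luminescence after 72 h of 100 nM doxorubicin or none, duplicate wells averaged, scaled to non-targeting siRNA, then expressed as robust z-scores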
Reading the numbers: viability z-score with doxorubicin: higher = more viable cells under doxorubicin; viability z-score without drug: higher = more viable cells with knock-down alone
Active means: 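a pool counts as active when its viability z-score with doxorubicin is -2 or below and its z-score without drug lies between -2 and 2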
The deposit covers about 17,000 reagents; below is a random part of them. 788 of them (4.7%) count as active. 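Calls rest on z-score classes alone; an extra cut-off of viability at most 70% of control was not applied to them.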 Further read-outs or replicates are left out here.

| combined z-score class | viability z-score with doxorubicin | viability z-score without drug | Outcome | target gene | PubChem SID |
| --- | --- | --- | --- | --- | --- |
| no change with or without drug | -0.22 | 0.51 | inactive | Ubl7 (ubiquitin-like 7 (bone marrow stromal cell-derived)) | SID152301699 |
| low cell count without drug only | -1.35 | -2.02 | inactive | AI661453 (expressed sequence AI661453) | SID152299146 |
| no change with or without drug | 0.9 | -0.17 | inactive | Cstf3 (cleavage stimulation factor, 3' pre-RNA, subunit 3) | SID152283889 |
| no change with or without drug | -0.22 | 0.51 | inactive | Rnd3 (Rho family GTPase 3) | SID152312492 |
| no change with or without drug | 0.45 | 1.85 | inactive | Kbtbd4 (kelch repeat and BTB (POZ) domain containing 4) | SID152314651 |
| low cell count with doxorubicin only | -2.25 | -0.67 | active | 1700129C05Rik (RIKEN cDNA 1700129C05 gene) | SID152265010 |
| no change with or without drug | -0.22 | -0.17 | inactive | Pbx2 (pre B cell leukemia homeobox 2) | SID152293597 |
| no change with or without drug | -0.45 | -1.85 | inactive | Or7a41 (olfactory receptor family 7 subfamily A member 41) | SID152280690 |
| high cell count without drug only | 1.69 | 3.2 | inactive | Sdf4 (stromal cell derived factor 4) | SID152297223 |
| no change with or without drug | 0.22 | 0.17 | inactive | Mybbp1a (MYB binding protein (P160) 1a) | SID152307582 |
| no change with or without drug | -1.8 | 0.17 | inactive | Pcnx4 (pecanex homolog 4) | SID152330333 |
| no change with or without drug | 0.45 | 0.51 | inactive | Tnfsf13 (tumor necrosis factor (ligand) superfamily, member 13) | SID152296758 |
| no change with or without drug | 0.9 | 0.84 | inactive | Sec22a (SEC22 homolog A, vesicle trafficking protein) | SID152288517 |
| no change with or without drug | 1.01 | 0.67 | inactive | Nudcd2 (NudC domain containing 2) | SID152290804 |
| no change with or without drug | 0.9 | 0.34 | inactive | Prss58 (serine protease 58) | SID152297724 |
| no change with or without drug | 0.22 | 0.51 | inactive | 4732427B05 | SID152307544 |
| no change with or without drug | 1.01 | 1.69 | inactive | Cyp3a44 (cytochrome P450, family 3, subfamily a, polypeptide 44) | SID152273189 |
| no change with or without drug | -1.8 | 0.51 | inactive | Zmym3 (zinc finger, MYM-type 3) | SID152313445 |
| no change with or without drug | 1.12 | 1.01 | inactive | Ift38 (intraflagellar transport 38) | SID152301206 |
| no change with or without drug | -1.12 | -0.51 | inactive | Bglap3 (bone gamma-carboxyglutamate protein 3) | SID152335776 |
| high cell count without drug only | 0 | 2.02 | inactive | Cdr1os (cerebellar degeneration related antigen 1, opposite strand) | SID152320125 |
| no change with or without drug | 0.45 | 0.51 | inactive | Cep97 (centrosomal protein 97) | SID152289334 |
| no change with or without drug | -0.22 | 0.84 | inactive | B3gat2 (beta-1,3-glucuronyltransferase 2) | SID152339252 |
| no change with or without drug | 1.8 | 0.84 | inactive | Mims2 (mitochondrial inner membrane scaffold 2) | SID152264764 |
| no change with or without drug | 0.9 | 0.51 | inactive | Ube3c (ubiquitin protein ligase E3C) | SID152276633 |
| no change with or without drug | 0.45 | -1.52 | inactive | Ly6f (lymphocyte antigen 6 family member F) | SID152307801 |
| no change with or without drug | 0.56 | -1.01 | inactive | Grid1 (glutamate receptor, ionotropic, delta 1) | SID152261703 |
| no change with or without drug | 0.34 | 0.84 | inactive | Wif1 (Wnt inhibitory factor 1) | SID152288908 |
| no change with or without drug | -0.11 | -0.84 | inactive | Arid2 (AT-rich interaction domain 2) | SID152309785 |
| no change with or without drug | 1.12 | 0.84 | inactive | Tspan6 (tetraspanin 6) | SID152313633 |
| no change with or without drug | 1.57 | -1.18 | inactive | Dhx16 (DEAH-box helicase 16) | SID152267914 |
| no change with or without drug | 1.35 | 0 | inactive | Krtap19-2 (keratin associated protein 19-2) | SID152302067 |
| no change with or without drug | 0 | 1.01 | inactive | Rapgef1 (Rap guanine nucleotide exchange factor (GEF) 1) | SID152278565 |
| no change with or without drug | 0.56 | 1.18 | inactive | Cog6 (component of oligomeric golgi complex 6) | SID152261304 |

Look-ups from the list.
Cstf3 (cleavage stimulation factor, 3' pre-RNA, subunit 3) [SID152283889], Outcome: inactive
Result for AI661453 (expressed sequence AI661453) [SID152299146] under “viability z-score with doxorubicin”: -1.35
